Assay results taken from the supplement of paper PMC7666118.
Some of the results follow.

By UniProt entry, the sequences of proteins in these tests, tags left out. Where a name states a change or a piece, a line headed by the entry shows the natural chain unless it says otherwise.
UniProt Q8NBZ7: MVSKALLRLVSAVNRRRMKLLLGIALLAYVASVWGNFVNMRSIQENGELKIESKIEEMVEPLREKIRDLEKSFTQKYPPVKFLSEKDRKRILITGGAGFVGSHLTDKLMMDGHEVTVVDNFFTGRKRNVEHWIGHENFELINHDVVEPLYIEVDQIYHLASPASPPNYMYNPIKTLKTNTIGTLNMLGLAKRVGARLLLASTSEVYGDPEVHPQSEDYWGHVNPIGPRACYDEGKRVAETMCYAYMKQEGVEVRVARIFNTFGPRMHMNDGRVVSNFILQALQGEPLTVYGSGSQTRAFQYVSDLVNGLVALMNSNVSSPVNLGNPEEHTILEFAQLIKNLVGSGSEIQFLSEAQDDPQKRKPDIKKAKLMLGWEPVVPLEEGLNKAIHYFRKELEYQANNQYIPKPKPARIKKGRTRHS
UniProt Q9H1E5: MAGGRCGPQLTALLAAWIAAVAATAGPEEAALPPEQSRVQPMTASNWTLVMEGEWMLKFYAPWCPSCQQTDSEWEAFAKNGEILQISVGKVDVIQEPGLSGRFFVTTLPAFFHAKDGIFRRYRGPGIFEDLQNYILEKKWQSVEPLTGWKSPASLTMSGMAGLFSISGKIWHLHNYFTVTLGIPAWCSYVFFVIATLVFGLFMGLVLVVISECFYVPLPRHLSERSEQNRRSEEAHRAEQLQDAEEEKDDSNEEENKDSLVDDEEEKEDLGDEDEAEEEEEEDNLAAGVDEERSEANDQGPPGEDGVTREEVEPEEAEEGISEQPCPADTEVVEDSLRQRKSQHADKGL
UniProt Q96RL1: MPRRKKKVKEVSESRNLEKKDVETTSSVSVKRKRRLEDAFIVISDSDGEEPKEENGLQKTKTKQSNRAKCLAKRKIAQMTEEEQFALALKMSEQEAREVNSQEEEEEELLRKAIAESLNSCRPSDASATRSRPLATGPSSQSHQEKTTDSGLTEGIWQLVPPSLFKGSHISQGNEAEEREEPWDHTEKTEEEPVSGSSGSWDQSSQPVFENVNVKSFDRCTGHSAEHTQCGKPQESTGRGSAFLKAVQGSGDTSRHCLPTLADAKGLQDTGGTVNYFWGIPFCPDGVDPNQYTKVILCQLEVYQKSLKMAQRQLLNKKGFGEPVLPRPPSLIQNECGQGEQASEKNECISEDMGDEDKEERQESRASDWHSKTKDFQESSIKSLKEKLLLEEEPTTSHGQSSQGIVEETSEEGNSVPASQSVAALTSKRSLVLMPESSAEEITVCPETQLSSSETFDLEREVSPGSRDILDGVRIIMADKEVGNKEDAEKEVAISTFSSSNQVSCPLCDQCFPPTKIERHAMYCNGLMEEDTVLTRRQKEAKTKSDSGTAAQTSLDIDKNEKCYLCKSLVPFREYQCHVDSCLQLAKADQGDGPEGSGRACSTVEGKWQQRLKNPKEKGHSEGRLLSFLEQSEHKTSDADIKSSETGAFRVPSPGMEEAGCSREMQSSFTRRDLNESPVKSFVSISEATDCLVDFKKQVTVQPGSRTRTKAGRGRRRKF
UniProt Q9UJT0: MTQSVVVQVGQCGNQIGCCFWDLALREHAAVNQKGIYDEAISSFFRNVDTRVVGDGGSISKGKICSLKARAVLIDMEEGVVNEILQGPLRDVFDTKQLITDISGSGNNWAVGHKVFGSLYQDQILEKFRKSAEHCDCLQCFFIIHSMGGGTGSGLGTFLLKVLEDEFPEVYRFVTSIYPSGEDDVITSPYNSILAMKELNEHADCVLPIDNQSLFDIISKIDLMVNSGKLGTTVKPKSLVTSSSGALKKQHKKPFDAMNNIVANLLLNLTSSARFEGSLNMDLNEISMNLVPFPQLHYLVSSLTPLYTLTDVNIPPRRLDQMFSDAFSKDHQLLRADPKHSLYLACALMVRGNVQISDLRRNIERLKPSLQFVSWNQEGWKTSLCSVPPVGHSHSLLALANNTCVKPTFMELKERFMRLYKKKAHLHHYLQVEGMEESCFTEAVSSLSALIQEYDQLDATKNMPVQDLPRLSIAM
UniProt Q709C8: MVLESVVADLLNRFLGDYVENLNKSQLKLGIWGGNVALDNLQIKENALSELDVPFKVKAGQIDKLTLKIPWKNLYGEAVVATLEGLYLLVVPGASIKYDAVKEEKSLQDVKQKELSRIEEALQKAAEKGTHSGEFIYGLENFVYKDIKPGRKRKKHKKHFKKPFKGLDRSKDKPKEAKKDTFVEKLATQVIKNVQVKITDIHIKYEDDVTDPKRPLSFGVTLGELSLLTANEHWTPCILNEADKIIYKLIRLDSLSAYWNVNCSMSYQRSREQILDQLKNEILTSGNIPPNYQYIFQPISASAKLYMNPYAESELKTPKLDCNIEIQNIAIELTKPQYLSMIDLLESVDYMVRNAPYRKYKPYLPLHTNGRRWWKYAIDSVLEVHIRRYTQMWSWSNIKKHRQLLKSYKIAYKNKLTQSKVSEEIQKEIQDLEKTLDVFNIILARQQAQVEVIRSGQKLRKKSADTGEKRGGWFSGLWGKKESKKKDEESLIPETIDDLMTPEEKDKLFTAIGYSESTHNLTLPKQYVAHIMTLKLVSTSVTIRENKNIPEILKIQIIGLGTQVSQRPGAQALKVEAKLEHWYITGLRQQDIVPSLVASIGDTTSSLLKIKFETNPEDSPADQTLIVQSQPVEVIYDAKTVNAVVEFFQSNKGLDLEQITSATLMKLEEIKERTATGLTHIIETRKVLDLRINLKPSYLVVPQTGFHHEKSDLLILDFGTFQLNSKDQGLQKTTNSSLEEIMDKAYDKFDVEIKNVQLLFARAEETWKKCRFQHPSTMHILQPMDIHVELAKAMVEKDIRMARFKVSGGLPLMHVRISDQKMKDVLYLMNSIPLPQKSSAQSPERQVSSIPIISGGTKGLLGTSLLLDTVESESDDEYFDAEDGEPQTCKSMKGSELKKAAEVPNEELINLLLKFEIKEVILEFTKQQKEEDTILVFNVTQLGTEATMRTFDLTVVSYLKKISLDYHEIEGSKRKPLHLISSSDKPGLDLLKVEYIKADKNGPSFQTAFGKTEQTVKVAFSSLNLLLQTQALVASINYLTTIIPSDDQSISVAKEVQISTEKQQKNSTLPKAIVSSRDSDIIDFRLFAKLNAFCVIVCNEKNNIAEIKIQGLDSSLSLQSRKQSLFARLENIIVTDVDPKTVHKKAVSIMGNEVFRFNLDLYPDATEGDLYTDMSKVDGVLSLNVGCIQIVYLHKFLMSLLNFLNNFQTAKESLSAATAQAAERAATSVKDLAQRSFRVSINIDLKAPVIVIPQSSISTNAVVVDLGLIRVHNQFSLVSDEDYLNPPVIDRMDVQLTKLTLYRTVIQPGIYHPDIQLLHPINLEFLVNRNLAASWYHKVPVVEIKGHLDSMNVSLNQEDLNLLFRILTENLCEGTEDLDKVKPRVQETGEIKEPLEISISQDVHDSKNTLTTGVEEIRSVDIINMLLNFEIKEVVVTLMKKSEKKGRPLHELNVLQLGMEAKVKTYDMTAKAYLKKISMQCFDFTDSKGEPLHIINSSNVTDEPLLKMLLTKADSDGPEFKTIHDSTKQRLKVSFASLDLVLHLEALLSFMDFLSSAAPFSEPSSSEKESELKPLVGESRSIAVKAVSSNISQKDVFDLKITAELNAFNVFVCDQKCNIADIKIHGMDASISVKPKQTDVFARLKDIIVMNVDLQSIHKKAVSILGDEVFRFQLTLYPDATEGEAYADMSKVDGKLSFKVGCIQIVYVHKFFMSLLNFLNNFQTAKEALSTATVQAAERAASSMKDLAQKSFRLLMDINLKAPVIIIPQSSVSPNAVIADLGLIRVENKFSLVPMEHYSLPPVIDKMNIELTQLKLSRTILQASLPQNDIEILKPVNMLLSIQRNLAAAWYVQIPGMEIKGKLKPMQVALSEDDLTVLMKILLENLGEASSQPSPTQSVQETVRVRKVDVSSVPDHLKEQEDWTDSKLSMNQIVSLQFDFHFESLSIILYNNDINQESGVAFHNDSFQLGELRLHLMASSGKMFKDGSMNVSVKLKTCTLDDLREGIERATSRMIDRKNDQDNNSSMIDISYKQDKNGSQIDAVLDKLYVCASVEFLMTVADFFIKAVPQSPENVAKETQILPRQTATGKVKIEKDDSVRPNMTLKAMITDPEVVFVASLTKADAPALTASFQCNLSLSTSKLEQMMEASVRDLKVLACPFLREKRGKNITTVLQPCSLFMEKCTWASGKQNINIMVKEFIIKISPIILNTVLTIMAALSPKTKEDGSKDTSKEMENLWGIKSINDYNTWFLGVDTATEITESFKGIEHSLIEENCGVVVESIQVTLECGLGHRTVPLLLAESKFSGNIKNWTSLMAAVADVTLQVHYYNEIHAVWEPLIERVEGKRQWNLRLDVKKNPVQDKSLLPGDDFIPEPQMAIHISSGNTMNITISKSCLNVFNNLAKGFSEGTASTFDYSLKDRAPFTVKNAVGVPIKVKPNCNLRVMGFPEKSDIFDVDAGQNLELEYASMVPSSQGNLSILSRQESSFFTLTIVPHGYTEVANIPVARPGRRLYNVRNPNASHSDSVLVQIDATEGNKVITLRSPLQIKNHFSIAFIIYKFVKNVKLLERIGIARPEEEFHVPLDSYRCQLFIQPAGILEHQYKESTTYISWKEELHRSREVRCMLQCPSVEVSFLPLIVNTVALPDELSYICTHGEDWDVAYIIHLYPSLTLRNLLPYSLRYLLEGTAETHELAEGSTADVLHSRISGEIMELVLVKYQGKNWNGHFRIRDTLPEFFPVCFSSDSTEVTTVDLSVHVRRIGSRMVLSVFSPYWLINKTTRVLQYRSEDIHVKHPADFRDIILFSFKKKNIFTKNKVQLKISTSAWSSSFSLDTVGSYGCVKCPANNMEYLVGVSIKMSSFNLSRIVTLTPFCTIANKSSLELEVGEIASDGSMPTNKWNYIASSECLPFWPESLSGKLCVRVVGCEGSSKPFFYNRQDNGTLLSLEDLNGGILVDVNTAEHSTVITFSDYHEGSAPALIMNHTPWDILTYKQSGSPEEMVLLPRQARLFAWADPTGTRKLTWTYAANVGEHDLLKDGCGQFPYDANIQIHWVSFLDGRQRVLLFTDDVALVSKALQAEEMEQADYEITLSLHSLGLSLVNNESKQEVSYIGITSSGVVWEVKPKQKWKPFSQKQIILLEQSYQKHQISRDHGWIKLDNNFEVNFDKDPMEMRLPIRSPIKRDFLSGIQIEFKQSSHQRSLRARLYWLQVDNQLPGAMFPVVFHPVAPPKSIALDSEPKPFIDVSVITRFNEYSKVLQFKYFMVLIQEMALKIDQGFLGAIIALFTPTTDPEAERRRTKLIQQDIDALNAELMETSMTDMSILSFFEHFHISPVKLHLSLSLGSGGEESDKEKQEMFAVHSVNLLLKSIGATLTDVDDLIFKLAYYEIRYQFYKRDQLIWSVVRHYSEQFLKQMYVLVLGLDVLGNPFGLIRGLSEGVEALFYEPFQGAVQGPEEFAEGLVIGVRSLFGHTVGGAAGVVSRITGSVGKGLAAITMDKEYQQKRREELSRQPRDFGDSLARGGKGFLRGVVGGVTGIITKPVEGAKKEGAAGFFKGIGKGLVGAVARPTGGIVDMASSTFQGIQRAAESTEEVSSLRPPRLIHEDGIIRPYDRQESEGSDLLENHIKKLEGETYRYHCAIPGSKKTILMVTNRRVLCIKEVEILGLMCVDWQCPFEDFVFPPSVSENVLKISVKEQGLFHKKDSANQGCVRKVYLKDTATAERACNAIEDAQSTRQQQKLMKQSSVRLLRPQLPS
UniProt P15498: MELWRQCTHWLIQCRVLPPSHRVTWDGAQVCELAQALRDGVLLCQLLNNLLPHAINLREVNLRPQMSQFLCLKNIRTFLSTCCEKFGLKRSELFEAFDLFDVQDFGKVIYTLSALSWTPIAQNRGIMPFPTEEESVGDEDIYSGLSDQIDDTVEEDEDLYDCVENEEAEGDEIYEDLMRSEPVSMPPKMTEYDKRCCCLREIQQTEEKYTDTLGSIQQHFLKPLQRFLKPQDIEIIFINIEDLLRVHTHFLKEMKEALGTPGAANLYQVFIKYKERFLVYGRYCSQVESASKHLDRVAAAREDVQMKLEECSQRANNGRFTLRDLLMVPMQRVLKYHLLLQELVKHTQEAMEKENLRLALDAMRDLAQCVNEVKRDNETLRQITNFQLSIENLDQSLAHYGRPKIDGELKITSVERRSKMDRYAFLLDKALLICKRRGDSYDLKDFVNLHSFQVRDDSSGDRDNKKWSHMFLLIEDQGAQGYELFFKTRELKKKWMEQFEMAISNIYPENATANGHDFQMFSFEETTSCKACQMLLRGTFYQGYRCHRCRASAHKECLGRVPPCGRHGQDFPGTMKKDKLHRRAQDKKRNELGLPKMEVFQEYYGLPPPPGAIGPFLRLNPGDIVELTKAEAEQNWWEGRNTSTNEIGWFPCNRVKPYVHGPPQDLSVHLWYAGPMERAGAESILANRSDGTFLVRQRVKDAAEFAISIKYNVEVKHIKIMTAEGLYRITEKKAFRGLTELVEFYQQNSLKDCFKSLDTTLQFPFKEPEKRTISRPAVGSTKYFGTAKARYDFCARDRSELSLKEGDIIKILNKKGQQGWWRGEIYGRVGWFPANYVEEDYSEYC

Compound: COc1ccc(Cn2ccc3cc(C)c(C(=O)NO)cc32)cc1
Experiment: dose-dependent thermal stabilisation call (2D-TPP, DLPTP, 10% FDR) (binary (1 = stabilised)); higher = stabilised by the compound
Details: system: HL-60 intact cells; concentration range 0.04-10 µM
Procedure: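 2D thermal proteome profiling in intact HL-60 cells treated with BRD-3811 (0, 0.04, 0.29, 2, 10 uM) for 90 min at 37 C, then heated 3 min at one of 12 temperatures (42-63.9 C). Soluble protein was quantified by TMT10 MS. The value is the DLPTP call of the paper: dose-dependent thermal stabilisation over all temperatures at 10% FDR (F-test of a dose-response against a flat model); one experiment, one call per tested protein.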

Which “dose-dependent thermal stabilisation call” value does the source give for TTC4 (UniProt O95801) here?
Its value is inactive: 0.

UCHL3 (UniProt P15374) was tested. Which “dose-dependent thermal stabilisation call” value did it give?
The value was inactive: 0.

With TTK (UniProt P33981) as the target, how does the “dose-dependent thermal stabilisation call” value read?
The value was inactive: 0.

With UNC119B (UniProt A6NIH7) as the target, how does the “dose-dependent thermal stabilisation call” value read?
Its value is inactive: 0.

With TUBGCP6 (UniProt Q96RT7) as the target, how does the “dose-dependent thermal stabilisation call” value read?
Its value is inactive: 0.

With TTC5 (UniProt Q8N0Z6) as the target, how does the “dose-dependent thermal stabilisation call” value read?
The value was inactive: 0.

With UBE4B (UniProt O95155) as the target, how does the “dose-dependent thermal stabilisation call” value read?
The value was inactive: 0.

How did the “dose-dependent thermal stabilisation call” value turn out when WAC (UniProt Q9BTA9) was run?
The value was inactive: 0.

UXS1 (UniProt Q8NBZ7) was tested. Which “dose-dependent thermal stabilisation call” value did it give?
The value was inactive: 0.

Which “dose-dependent thermal stabilisation call” value does the source give for UBL4A (UniProt P11441) here?
Its value is inactive: 0.

Which “dose-dependent thermal stabilisation call” value does the source give for TXNDC13 (UniProt Q9H1E5) here?
The value was inactive: 0.

Which “dose-dependent thermal stabilisation call” value does the source give for UIMC1 (UniProt Q96RL1) here?
Its value is inactive: 0.

With TUBE1 (UniProt Q9UJT0) as the target, how does the “dose-dependent thermal stabilisation call” value read?
The value was inactive: 0.

For TTYH3 (UniProt Q9C0H2), which “dose-dependent thermal stabilisation call” value is on record?
Its value is inactive: 0.

For VDAC3 (UniProt Q9Y277), which “dose-dependent thermal stabilisation call” value is on record?
The value was inactive: 0.

For TTC27 (UniProt Q6P3X3), which “dose-dependent thermal stabilisation call” value is on record?
Its value is inactive: 0.

How did the “dose-dependent thermal stabilisation call” value turn out when UTRN (UniProt P46939) was run?
Its value is inactive: 0.

For VPS13C (UniProt Q709C8), which “dose-dependent thermal stabilisation call” value is on record?
The value was inactive: 0.

For VPS41 (UniProt P49754), which “dose-dependent thermal stabilisation call” value is on record?
Its value is inactive: 0.

With VIM (UniProt P08670) as the target, how does the “dose-dependent thermal stabilisation call” value read?
The value was inactive: 0.

For UHRF1 (UniProt Q96T88), which “dose-dependent thermal stabilisation call” value is on record?
Its value is inactive: 0.

Which “dose-dependent thermal stabilisation call” value does the source give for TTPAL (UniProt Q9BTX7) here?
Its value is inactive: 0.

How did the “dose-dependent thermal stabilisation call” value turn out when USE1 (UniProt Q9NZ43) was run?
Its value is inactive: 0.

With UBR3 (UniProt Q6ZT12) as the target, how does the “dose-dependent thermal stabilisation call” value read?
Its value is inactive: 0.

Which “dose-dependent thermal stabilisation call” value does the source give for VCL (UniProt P18206) here?
Its value is inactive: 0.

How did the “dose-dependent thermal stabilisation call” value turn out when USP7 (UniProt Q93009) was run?
The value was inactive: 0.

With VAV1 (UniProt P15498) as the target, how does the “dose-dependent thermal stabilisation call” value read?
The value was inactive: 0.

Which “dose-dependent thermal stabilisation call” value does the source give for UBXN7 (UniProt O94888) here?
The value was inactive: 0.

For TWSG1 (UniProt Q9GZX9), which “dose-dependent thermal stabilisation call” value is on record?
The value was inactive: 0.

VPS37B (UniProt Q9H9H4) was tested. Which “dose-dependent thermal stabilisation call” value did it give?
The value was inactive: 0.

Which “dose-dependent thermal stabilisation call” value does the source give for USP32 (UniProt Q8NFA0) here?
The value was inactive: 0.

VPS16 (UniProt Q9H269) was tested. Which “dose-dependent thermal stabilisation call” value did it give?
Its value is inactive: 0.

Which “dose-dependent thermal stabilisation call” value does the source give for VPS13D (UniProt Q5THJ4) here?
Its value is inactive: 0.

USP3 (UniProt Q9Y6I4) was tested. Which “dose-dependent thermal stabilisation call” value did it give?
Its value is inactive: 0.

VPRBP (UniProt Q9Y4B6) was tested. Which “dose-dependent thermal stabilisation call” value did it give?
Its value is inactive: 0.
